Results are given in words; binding and its absence hold for the method and conditions named. Some results given as binding are weak or reduced against the parent protein; the word gives no strength. Each block holds one binder with its values, some of them ahead of it.
What was measured:
[1] = target: cynomolgus CCR8 (cynomolgus) (UniProt G7NYJ2); experiment: flow cytometry on cynomolgus CCR8-overexpressing 293F cells
[2] = target: cynomolgus CCR8 (cynomolgus) (UniProt G7NYJ2); experiment: FACS binding analysis (FIG. 4E)
rat CCR8 (rat) [3] = target: T1, rat CCR8 (rat) (UniProt D4ADE0); experiment: flow cytometry on CCR8-overexpressing cells
T1 sequence: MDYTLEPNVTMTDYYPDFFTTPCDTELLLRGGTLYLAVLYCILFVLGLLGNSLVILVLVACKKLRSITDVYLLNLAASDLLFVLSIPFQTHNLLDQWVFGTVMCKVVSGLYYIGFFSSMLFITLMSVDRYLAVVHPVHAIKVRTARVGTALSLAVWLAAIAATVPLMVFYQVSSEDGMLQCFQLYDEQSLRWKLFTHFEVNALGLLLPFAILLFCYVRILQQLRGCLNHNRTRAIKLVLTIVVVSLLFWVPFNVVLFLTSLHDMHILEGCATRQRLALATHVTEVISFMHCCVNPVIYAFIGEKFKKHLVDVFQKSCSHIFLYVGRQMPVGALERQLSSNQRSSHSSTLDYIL

Amino acid sequences for entries named in this document (tags omitted). A change or cut given only in a name is not applied to a line headed by its entry. Chains listed by the source or under a name are the forms on record and can include a tag or linker.
cynomolgus CCR8 (G7NYJ2, form named): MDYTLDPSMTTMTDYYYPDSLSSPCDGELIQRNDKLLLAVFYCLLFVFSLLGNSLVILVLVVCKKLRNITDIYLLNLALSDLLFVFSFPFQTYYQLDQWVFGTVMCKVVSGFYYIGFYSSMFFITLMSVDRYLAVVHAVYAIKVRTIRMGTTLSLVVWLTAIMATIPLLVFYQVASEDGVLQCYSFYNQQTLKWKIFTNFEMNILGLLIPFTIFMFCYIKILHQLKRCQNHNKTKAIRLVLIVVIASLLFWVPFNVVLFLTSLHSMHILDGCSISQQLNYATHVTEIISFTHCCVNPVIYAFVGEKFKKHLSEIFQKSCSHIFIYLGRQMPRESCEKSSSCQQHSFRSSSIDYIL
UniProt P51685: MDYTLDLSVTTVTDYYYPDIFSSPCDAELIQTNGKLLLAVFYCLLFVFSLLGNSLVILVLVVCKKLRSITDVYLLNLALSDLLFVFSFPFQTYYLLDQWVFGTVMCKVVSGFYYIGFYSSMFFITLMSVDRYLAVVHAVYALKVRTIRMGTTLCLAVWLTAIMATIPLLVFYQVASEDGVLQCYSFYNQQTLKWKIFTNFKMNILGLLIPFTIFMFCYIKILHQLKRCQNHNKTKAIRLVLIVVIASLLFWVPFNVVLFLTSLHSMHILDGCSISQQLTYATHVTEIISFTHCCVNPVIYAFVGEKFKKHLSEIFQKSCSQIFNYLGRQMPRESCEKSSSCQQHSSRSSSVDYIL

[4] = target: cynomolgus CCR8 (cynomolgus) (UniProt G7NYJ2); experiment: flow cytometry on CCR8-overexpressing cells
rat CCR8 (rat) [5] = target: T1, rat CCR8 (rat); experiment: species cross reactivity, comparison of Table 12
[6] = target: cynomolgus CCR8 (cynomolgus) (UniProt G7NYJ2); experiment: species cross reactivity, comparison of Table 12
rat CCR8 (rat) [7] = target: T1, rat CCR8 (rat); experiment: FACS binding analysis (FIG. 4B)
human CCR8 (human) = human CCR8 (human) (UniProt P51685); experiment: FACS on human CCR8-expressing 293F cells

- binding [1]: binds
B1: 3O20 (antibody, V domains shown)
VH: EVQLVESGGGLVQPKGSLKLSCATSGFSFNAYAMNWVRQAPGKGLEWVGRIRSKSNNYATYYADSVKGRFTISRDDSKTILYLQMNTLKTEDTAIYYCVRGGYHGNSAYFDVWGTGTSVTVSS
VL: DIVMTQAAPSVPVTPGESVSISCRSSKSLLHSNGNTYLYWFLQRPGQSPQLLIYRMSNLASGVPDRFSGSGSGTAFTLRISRVEAEDVGVYYCLQHLEYPFTFGSGTKLEIK

- binding [1]: binds
B2: 4G19 (antibody, V domains shown)
VH: EVQFVESGGGLVQPKGSLKLSCAASGFSFNTYAMNWVRQAPGKGLEWVARIRTKSNNYATHYADSVTDRFIVSRDDSESMTYLQMNNLKTEDTGMYYCVRGGNGIYGRNTMDNWGQGTSVTVSS
VL: DIVMTQTAPSVPVSPGESVSISCRSSKSLLHSSGNTYLYWFLQRPGQSPQLLIYRMSNLASGVPDRFSGSGSGTAFTLRISRVEAEDVGVYYCMQHLEYPFTFGGGTKLEIQ

- binding [1]: binds
B7: 84B4 (antibody, V domains shown)
VH: EVQLQQSGPVLVKPGASVKMSCKASGFTITDYYFNWVKQSHGKSLEWIGIINPYNGVARYKQKFKGKATLTVDKSSSTVYLEFSGLTSEDSAVYYCVRFVYGTTYDYAMDYWGQGTSVTVSS
VL: DVLMTQTPLSLPVSLGDQASISCRSSQSIVHSNGNTYLEWYVQKPGQSPKLLIYKVSNRFSGVPDRFSGSGSGTDFTLKISRVEAEDLGVYYCFQGSHVPPTFGGGTKLEIK

Further lines, the binder ahead of its results:

B3: 3C11 (antibody, V domains shown)
VH: EFQLQQSGPELVKPGASVKISCKTSGYSFTDYNINWVKQSNGKSLEWIGLINPNHGTTKSNQKFKGKATLTVDQSSSTAYMQLSSLTSEDSAVYYCARHDYDGAYWGQGTLVTVSA
VL: DVVMTQTPLSLPVSLGDQASISCRSSQSLIHSNGNTYLHWYLQKPGQSPKLLIYKISNRFSGVPDRFSGSGSGTDFTLKISRVEAEDLGVYFCSQSTRAPWTFGGGTKLEIK
- binding [1]: binds

B4: 3F11hz4 (antibody, V domains shown)
VH: EVQLVESGGGLVQPGGSLKLSCAASGFSFNTYAMNWVRQASGKGLEWVGRIRSKSNYYATYYAASVKGRFTISRDDSKSTLYLQMNSLKTEDTAVYYCVRGRELGDYYAMDYWGQGTLVTVSS
VL: DIVMTQSPLSLPVTPGEPASISCRSSKSLLHSNGNTYLYWFLQKPGQSPQLLIYRMSNLASGVPDRFSGSGSGTDFTLKISRVEAEDVGVYYCMQHLEYPFTFGQGTKLEIK
- binding [2]: binds
- binding (rat CCR8 (rat) [3]): binds
- binding [4]: binds
- binding (rat CCR8 (rat) [5]): binds
- binding [6]: binds
- binding (rat CCR8 (rat) [7]): binds

B5: 3F11 (antibody, V domains shown)
VH: EVQLVESGGGLVQPKGSLKLSCAASGFSFNTYAMNWVRQAPGKGLEWVARIRSKSNYYATYYADSVKDRFTISRDDSESMLYLQMNNLKTEDTAMYYCVRGRELGDYYAMDYWGQGTSVTVSS
VL: DIVMTQAAPSVPVTPGESVSISCRSSKSLLHSNGNTYLYWFLQRPGQSPQLLIYRMSNLASGVPNRFSGSGSGTAFTLRISRVEAEDVGVYYCMQHLEYPFTFGSGTKLEIK
- binding [1]: binds

B6: 1G17hz1 (antibody, V domains shown)
VH: QVQLVQSGAEVKKPGASVKVSCKASGYTFADYYMHWVRQAPGQGLEWMGAIDPETGRTAYAQKFQGRVTMTRDTSTSTVYMELSSLRSEDTAVYYCARRAYWGGWGQGTLVTVSS
VL: DVVMTQSPLSLPVTLGQPASISCRSSQSLVHSSGNTYLHWFQQRPGQSPRRLIYKVSNRFSGVPDRFSGSGSGTDFTLKISRVEAEDVGVYYCSQSTHVPYTFGQGTKLEIK
- binding (human CCR8 (human)): no binding
